± gives the standard deviation of the averaged measurements. The list shows a part of the results, in another mix than the full data. Most entries show no effect beyond the scatter of the controls.
Compound: Nc1ncnc2c1ncn2[C@@H]1O[C@H](COP(=O)(O)OP(=O)(O)NP(=O)(O)O)[C@@H](O)[C@H]1O [adenylyl imidodiphosphate]
Experiment: NP40-soluble protein abundance relative to vehicle (solubility fold change) (ratio); higher = more soluble protein in presence of AMP-PNP
Procedure, shortened: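 Jurkat crude lysate (Dounce-homogenised) was treated with eight concentrations from 0.1 to 10 mM for 10 min at room temperature, then 3 min at 37 °C. It was solubilised with 0.8% NP40 and benzonase (60 min, 4 °C) and ultracentrifuged, and the supernatant was TMT-labelled for LC-MS/MS. Intensities were vsn-normalised, and the value is the fold change against the NP40-processed vehicle per replicate, from three independent experiments.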

The chains behind the UniProt entries cited, without tags or fusion partners. Where a name states a change or a piece, a line headed by the entry shows the natural chain unless it says otherwise.
UniProt Q8WU76: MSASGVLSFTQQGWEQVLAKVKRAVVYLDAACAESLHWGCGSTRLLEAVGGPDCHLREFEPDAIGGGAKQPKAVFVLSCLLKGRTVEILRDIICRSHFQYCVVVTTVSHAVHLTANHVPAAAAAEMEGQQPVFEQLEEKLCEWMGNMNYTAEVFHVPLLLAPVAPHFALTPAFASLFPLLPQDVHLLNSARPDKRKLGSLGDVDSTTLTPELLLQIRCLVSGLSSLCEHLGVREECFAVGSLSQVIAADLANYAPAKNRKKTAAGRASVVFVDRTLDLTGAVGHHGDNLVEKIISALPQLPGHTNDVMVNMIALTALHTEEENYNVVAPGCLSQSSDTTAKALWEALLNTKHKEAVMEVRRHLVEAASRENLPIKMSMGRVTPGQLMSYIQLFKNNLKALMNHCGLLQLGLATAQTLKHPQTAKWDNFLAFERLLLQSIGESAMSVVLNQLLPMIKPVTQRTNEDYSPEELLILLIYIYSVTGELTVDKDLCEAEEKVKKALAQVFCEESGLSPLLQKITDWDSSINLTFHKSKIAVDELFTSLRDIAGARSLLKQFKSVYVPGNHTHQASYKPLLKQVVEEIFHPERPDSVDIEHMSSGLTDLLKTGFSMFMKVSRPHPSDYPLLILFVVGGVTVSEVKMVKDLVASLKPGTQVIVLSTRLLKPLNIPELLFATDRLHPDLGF
UniProt Q8WUX2: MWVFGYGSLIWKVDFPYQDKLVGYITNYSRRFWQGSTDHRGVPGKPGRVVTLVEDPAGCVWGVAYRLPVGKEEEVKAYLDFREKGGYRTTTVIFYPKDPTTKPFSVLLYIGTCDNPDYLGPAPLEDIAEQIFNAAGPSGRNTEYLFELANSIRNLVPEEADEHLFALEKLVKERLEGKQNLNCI
UniProt Q8WWC4: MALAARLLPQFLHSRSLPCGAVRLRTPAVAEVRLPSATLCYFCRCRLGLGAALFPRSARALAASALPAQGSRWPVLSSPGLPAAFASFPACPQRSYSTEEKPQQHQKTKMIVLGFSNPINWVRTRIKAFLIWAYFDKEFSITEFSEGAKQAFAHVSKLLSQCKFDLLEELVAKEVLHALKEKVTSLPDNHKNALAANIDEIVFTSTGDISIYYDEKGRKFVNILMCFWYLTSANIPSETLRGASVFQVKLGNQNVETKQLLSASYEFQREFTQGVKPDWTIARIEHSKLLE
UniProt Q8TDH9: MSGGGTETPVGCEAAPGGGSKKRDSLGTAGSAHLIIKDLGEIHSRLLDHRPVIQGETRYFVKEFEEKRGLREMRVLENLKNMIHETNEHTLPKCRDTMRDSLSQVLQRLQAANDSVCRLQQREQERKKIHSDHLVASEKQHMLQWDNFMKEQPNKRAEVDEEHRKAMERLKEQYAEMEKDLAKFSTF
UniProt Q8NHY2, whole entry: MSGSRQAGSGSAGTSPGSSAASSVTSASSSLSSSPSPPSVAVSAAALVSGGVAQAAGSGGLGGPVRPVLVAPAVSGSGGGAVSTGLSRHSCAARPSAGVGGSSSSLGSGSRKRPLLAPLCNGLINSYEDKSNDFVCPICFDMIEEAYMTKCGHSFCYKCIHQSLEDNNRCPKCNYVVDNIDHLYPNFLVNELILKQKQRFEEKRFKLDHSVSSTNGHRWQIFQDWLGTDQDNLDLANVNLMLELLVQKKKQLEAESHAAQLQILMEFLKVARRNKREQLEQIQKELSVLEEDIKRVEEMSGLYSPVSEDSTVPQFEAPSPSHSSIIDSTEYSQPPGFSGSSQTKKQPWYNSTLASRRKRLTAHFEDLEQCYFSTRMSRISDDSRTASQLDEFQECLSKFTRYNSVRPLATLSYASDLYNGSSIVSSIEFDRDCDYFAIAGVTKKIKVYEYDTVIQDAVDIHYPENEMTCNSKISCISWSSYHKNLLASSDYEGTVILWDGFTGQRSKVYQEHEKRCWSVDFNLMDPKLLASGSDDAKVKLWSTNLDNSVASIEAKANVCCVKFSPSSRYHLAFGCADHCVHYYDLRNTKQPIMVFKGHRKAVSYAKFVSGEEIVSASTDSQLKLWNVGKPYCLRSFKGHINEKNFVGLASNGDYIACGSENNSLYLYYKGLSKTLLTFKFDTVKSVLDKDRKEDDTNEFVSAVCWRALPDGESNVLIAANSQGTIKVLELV
UniProt Q8TBZ6: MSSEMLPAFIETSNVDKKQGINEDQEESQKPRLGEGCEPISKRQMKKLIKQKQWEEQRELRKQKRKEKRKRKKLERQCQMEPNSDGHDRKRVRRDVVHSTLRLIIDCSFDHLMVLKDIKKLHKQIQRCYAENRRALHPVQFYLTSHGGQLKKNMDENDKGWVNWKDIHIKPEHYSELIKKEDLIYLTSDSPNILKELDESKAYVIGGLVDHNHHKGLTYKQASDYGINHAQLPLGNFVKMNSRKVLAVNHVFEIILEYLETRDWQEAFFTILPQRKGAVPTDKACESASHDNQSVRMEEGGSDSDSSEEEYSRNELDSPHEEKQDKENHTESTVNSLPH
UniProt Q8WUQ7: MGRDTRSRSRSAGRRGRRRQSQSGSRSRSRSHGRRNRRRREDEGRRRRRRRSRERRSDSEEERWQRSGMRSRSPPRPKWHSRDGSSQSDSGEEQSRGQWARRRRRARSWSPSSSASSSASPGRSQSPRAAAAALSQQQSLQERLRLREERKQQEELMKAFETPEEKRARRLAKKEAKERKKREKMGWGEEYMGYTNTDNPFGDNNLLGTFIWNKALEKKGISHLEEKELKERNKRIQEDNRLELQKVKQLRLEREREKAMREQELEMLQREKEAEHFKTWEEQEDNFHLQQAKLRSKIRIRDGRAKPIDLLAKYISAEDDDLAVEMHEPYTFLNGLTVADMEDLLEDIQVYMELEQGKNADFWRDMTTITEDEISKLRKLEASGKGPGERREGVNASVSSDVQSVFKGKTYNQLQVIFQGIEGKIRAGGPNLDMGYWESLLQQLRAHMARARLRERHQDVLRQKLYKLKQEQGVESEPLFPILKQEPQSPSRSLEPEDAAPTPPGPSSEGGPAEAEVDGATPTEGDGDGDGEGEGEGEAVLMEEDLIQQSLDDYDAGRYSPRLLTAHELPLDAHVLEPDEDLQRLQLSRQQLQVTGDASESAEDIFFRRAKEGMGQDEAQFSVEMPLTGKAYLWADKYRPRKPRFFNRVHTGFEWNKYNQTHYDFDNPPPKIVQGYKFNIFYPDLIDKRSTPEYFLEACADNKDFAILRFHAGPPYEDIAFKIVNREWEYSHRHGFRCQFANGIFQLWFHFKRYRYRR
UniProt Q8WVK7: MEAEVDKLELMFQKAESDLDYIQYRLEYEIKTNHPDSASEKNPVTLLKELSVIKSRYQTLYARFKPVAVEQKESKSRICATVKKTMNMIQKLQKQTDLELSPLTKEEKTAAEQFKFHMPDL
UniProt Q92918, whole entry, looked up: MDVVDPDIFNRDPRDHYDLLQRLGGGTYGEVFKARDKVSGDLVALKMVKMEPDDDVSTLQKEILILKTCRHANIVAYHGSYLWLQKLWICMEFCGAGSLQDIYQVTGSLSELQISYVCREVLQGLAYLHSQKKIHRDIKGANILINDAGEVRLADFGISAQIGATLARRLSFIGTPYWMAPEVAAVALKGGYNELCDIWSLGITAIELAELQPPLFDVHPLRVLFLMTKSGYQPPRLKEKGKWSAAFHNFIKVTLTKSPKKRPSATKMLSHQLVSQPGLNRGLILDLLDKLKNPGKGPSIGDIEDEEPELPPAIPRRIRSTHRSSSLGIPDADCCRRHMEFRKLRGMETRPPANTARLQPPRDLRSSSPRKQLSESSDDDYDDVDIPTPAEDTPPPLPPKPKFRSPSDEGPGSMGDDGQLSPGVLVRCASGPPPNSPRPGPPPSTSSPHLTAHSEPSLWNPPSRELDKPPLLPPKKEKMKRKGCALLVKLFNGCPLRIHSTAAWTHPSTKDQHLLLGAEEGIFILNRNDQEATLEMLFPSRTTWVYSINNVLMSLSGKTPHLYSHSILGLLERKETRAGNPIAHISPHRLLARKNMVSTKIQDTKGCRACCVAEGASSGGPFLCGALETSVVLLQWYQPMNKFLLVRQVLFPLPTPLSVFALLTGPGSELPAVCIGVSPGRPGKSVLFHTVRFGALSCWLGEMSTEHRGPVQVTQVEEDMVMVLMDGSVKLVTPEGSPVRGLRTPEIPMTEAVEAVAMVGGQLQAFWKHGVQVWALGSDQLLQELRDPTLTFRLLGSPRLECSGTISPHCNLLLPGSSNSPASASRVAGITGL
UniProt Q92834: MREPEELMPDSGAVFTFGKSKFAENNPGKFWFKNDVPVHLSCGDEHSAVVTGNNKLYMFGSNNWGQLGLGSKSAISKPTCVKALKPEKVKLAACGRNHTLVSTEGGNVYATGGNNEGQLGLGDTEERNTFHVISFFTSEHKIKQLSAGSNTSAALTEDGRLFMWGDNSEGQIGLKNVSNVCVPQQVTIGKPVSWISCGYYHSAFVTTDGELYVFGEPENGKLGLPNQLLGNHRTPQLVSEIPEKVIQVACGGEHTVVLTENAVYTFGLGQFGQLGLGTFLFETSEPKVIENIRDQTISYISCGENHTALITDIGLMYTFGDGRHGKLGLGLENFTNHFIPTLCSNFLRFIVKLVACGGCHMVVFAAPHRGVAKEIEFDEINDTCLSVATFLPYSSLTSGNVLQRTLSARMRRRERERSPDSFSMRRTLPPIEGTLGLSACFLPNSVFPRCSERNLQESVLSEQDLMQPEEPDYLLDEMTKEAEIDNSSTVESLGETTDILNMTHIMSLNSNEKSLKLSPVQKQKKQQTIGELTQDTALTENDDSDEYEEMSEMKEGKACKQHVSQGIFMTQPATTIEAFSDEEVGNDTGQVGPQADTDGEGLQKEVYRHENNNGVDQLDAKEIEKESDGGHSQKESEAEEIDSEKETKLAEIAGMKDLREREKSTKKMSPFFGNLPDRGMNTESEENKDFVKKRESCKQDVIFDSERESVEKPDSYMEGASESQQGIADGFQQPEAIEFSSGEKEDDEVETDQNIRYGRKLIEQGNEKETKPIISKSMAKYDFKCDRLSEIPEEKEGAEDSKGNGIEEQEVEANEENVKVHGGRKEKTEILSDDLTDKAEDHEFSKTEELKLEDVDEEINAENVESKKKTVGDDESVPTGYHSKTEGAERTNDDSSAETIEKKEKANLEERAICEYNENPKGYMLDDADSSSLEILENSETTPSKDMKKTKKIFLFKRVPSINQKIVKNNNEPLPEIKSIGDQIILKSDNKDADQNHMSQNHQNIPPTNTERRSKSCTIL
UniProt Q8WTT2: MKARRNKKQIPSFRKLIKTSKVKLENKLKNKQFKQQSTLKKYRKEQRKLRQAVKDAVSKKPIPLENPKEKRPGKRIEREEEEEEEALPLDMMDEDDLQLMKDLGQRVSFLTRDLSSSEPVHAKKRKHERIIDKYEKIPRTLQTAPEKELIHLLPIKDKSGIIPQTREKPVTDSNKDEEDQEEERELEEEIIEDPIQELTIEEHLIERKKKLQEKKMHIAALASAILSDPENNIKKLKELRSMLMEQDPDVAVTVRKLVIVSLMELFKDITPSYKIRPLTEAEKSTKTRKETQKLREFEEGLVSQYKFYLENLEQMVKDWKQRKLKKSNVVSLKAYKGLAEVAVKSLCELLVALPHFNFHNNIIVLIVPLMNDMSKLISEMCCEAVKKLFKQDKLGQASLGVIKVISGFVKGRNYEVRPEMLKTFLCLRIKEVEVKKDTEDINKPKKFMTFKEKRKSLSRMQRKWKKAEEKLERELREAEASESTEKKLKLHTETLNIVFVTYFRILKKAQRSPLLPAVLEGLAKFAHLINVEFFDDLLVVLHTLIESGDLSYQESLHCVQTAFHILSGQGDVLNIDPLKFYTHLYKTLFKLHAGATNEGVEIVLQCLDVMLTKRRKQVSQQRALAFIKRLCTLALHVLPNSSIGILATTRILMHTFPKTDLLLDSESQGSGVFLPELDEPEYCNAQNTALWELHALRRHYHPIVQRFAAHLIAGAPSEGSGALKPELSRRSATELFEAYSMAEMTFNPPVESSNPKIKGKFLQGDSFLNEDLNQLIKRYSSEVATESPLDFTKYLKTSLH

Target	NP40-soluble protein abundance (concentration: 0.1mM)	NP40-soluble protein abundance (concentration: 0.5mM)
UniProt Q8WU76 and related entries	0.962 ± 0.072	0.958 ± 0.11
UniProt Q8WU79 and related entries	0.974 ± 0.013	1.03 ± 0.046
JARID2 (UniProt Q92833)	0.999 ± 0.018	0.999 ± 0.024
UniProt Q8NC51 and related entries	0.983 ± 0.015	1.07 ± 0.025
UniProt Q92609 and related entries	1 ± 0.017	1.01 ± 0.043
GADD45GIP1 (UniProt Q8TAE8)	1.03 ± 0.018	1.002 ± 0.0065
UniProt Q8TAP6 and related entries	0.999 ± 0.023	0.987 ± 0.039
NECAP1 (UniProt Q8NC96)	1.02 ± 0.042	1 ± 0.038
CHAC2 (UniProt Q8WUX2)	1.02 ± 0.029	0.988 ± 0.021
GIMAP7 (UniProt Q8NHV1)	0.971 ± 0.052	0.946 ± 0.04
OSTF1 (UniProt Q92882)	1.01 ± 0.028	0.994 ± 0.036
PHIP (UniProt Q8WWQ0)	0.987 ± 0.014	1.023 ± 0.0083
UniProt Q8WXE0 and related entries	0.988 ± 0.049	0.973 ± 0.023
UniProt Q8TBB5 and related entries	0.955 ± 0.016	1.01 ± 0.064
ABHD11 (UniProt Q8NFV4)	1.01 ± 0.053	1.04 ± 0.041
UniProt Q92796-3	1.01 ± 0.016	1.03 ± 0.022
UniProt Q8WWC4	1.04 ± 0.029	0.981 ± 0.076
UniProt Q8TEA7 and related entries	0.994 ± 0.05	0.954 ± 0.042
UniProt Q8TBA6 and related entries	0.962 ± 0.011	1 ± 0.046
UniProt Q8TDH9	1.02 ± 0.031	1.04 ± 0.049

Target	NP40-soluble protein abundance (concentration: 0.1mM)	NP40-soluble protein abundance (concentration: 0.5mM)
CNNM3 (UniProt Q8NE01)	0.997 ± 0.032	0.993 ± 0.045
ZCRB1 (UniProt Q8TBF4)	1.02 ± 0.011	1.01 ± 0.039
RDH11 (UniProt Q8TC12)	0.989 ± 0.019	0.989 ± 0.1
UniProt Q8NHY2 and related entries	0.9969 ± 0.0085	0.994 ± 0.011
UniProt Q8TD16 and related entries	0.993 ± 0.018	0.999 ± 0.042
UniProt Q92784 and related entries	1.006 ± 0.0061	1.009 ± 0.0092
UniProt Q8NE86 and related entries	1.02 ± 0.024	0.977 ± 0.036
UniProt Q8NFD5 and related entries	0.9716 ± 0.0085	0.981 ± 0.03
UniProt Q8WZA0 and related entries	0.957 ± 0.081	1.04 ± 0.054
NANP (UniProt Q8TBE9)	0.994 ± 0.017	1.03 ± 0.021
UBASH3B (UniProt Q8TF42)	1.01 ± 0.041	0.98 ± 0.048
PLA2G15 (UniProt Q8NCC3)	1.05 ± 0.034	0.99 ± 0.038
UniProt Q8TBZ6	1.02 ± 0.011	0.994 ± 0.017
RNF169 (UniProt Q8NCN4)	1.08 ± 0.22	0.989 ± 0.052
UniProt Q8TCE6 and related entries	0.997 ± 0.028	0.989 ± 0.04
TGFBRAP1 (UniProt Q8WUH2)	0.994 ± 0.039	0.988 ± 0.073
UniProt Q8TB61 and related entries	0.963 ± 0.019	0.976 ± 0.03
UniProt Q92698 and related entries	1 ± 0.039	0.987 ± 0.053
UniProt Q8TAV0 and related entries	1.01 ± 0.024	1.01 ± 0.02
OVCA2 (UniProt Q8WZ82)	0.9978 ± 0.0078	1.009 ± 0.0035

Target	NP40-soluble protein abundance (concentration: 0.1mM)	NP40-soluble protein abundance (concentration: 0.5mM)
UniProt Q92616	1.04 ± 0.021	1.04 ± 0.025
NDRG1 (UniProt Q92597)	0.987 ± 0.048	1.01 ± 0.019
UniProt Q8NCA5 and related entries	1.01 ± 0.024	1.05 ± 0.042
LEO1 (UniProt Q8WVC0)	0.98 ± 0.022	1.01 ± 0.047
UniProt Q8WUQ7 and related entries	0.978 ± 0.026	1.02 ± 0.014
UniProt Q92540 and related entries	0.99 ± 0.03	0.9589 ± 0.0053
UniProt Q8TEW0-8|Q5VWU8 and related entries	0.992 ± 0.036	1 ± 0.04
UniProt Q8WY54 and related entries	0.999 ± 0.031	1.02 ± 0.022
ZNF384 (UniProt Q8TF68)	0.972 ± 0.02	0.998 ± 0.049
BAP1 (UniProt Q92560)	0.991 ± 0.016	1.02 ± 0.023
NUBPL (UniProt Q8TB37)	0.988 ± 0.027	1.02 ± 0.047
UniProt Q8WVK7	0.995 ± 0.041	1.02 ± 0.076
NUP43 (UniProt Q8NFH3)	1.03 ± 0.024	1.012 ± 0.004
TTL (UniProt Q8NG68)	1.04 ± 0.015	1.05 ± 0.041
TOR1AIP2 (UniProt Q8NFQ8)	0.965 ± 0.021	0.996 ± 0.021
UniProt Q92918-2|K7ER95	1.03 ± 0.023	1 ± 0.051
UniProt Q92834 and related entries	0.969 ± 0.013	0.9824 ± 0.0049
NOC3L (UniProt Q8WTT2)	1.031 ± 0.0068	1.07 ± 0.03
UniProt Q92576 and related entries	0.99 ± 0.027	0.994 ± 0.02

16 entries from above, as comma-separated lines:
Target,NP40-soluble protein abundance (concentration: 0.1mM),NP40-soluble protein abundance (concentration: 0.5mM)
GADD45GIP1 (UniProt Q8TAE8),1.03 ± 0.018,1.002 ± 0.0065
UniProt Q8TAP6 and related entries,0.999 ± 0.023,0.987 ± 0.039
NECAP1 (UniProt Q8NC96),1.02 ± 0.042,1 ± 0.038
CHAC2 (UniProt Q8WUX2),1.02 ± 0.029,0.988 ± 0.021
GIMAP7 (UniProt Q8NHV1),0.971 ± 0.052,0.946 ± 0.04
OSTF1 (UniProt Q92882),1.01 ± 0.028,0.994 ± 0.036
PHIP (UniProt Q8WWQ0),0.987 ± 0.014,1.023 ± 0.0083
UniProt Q8WXE0 and related entries,0.988 ± 0.049,0.973 ± 0.023
UniProt Q8TBB5 and related entries,0.955 ± 0.016,1.01 ± 0.064
ABHD11 (UniProt Q8NFV4),1.01 ± 0.053,1.04 ± 0.041
UniProt Q92796-3,1.01 ± 0.016,1.03 ± 0.022
UniProt Q8WWC4,1.04 ± 0.029,0.981 ± 0.076
UniProt Q8TEA7 and related entries,0.994 ± 0.05,0.954 ± 0.042
UniProt Q8TBA6 and related entries,0.962 ± 0.011,1 ± 0.046
UniProt Q8TDH9,1.02 ± 0.031,1.04 ± 0.049
CNNM3 (UniProt Q8NE01),0.997 ± 0.032,0.993 ± 0.045

Source: the supplement of paper PMC6411743
